Test results: patent US10646567B2, “Methods of treating cancer using PD-1 axis binding antagonists and MEK inhibitors” (Genentech, Inc., priority 2011, dated 2020)
For some assays here: For at least one compound, name, drawing or mass did not settle the structure. Some results were stated once for a whole list of compounds, not compound by compound.

Protein sequences, listed by entry. Tags and fused reporters are not part of them.
UniProt Q02750, whole entry S218E/S222D: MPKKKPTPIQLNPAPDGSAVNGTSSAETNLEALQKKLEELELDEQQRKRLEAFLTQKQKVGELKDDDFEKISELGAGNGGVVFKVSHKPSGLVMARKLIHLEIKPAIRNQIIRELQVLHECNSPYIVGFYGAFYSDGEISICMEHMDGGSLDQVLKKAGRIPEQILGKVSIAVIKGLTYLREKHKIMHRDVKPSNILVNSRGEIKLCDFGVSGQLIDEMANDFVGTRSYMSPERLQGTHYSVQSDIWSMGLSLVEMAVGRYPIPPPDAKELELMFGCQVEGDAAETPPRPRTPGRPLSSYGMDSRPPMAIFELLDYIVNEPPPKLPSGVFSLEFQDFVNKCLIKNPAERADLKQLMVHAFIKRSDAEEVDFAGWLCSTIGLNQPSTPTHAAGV

Assays:
[1] = tested on: human monocyte-derived dendritic cells; assay: Maturation and activation of monocyte-derived dendritic cells with anti-CD40 (FACS); format: cell-based
Description: Briefly, human monocytes were purified from whole blood using StemCell Technologies human monocyte RosetteSep as per manufacturer's instructions. Monocytes were seeded in T175 flasks at approximately 0.5-1.0×10^6 per ml in 50 ng/ml human GM-CSF and 100 ng/ml human IL-4 for 7 days total, with half-media exchanges every 2 days. […] MEK inhibitors and BRAF inhibitor were titrated 10-fold from 10 μM to 0.001 μM such that the final culture concentration was 0.5% DMSO in a total volume of 200 μl per well. Forty-eight hours later, cells were harvested and transferred to a 96-well V-bottom plate. […] HLA-DR,-DP,-DQ-FITC, HLA-ABC-PE, CD83-APC, CD14-FITC, CD80-PE, and CD86-APC. Propidium iodide was included to exclude dead cells. Samples were run on a BD FACSCaliber flow cytometer and data was analyzed using FlowJo software (Tree Star, Inc.).

[2] = tested on: human melanoma cell lines and human colorectal cell lines; assay: Surface MHC-I expression on human tumor cell lines (FACS); format: cell-based; conditions: 1 micromolar, 24 hours, compared to vehicle treated cells
Description: To determine if treatment with MEK inhibitor (MEKi) enhanced immunogenicity of tumor cells, surface expression of MHC-I on tumor cell lines treated with MEK inhibitors GDC-0973 and G-38963 was assayed. Briefly, human melanoma cell lines (Malme-3M, A2058, […][…], SK23, SKMEL-28, 537 Mel, RPMI-795) and human colorectal cell lines (Colo 320 DM, Colo 205, WiDr, Colo 741, RKO, DLD-1, HM7, HCT-15) were treated with 1 micromolar […]-0973 or G-38963, BRAF inhibitor (BRAFi) GDC-0879, or DMSO vehicle for 24 hours. Following treatment, cells were stained for surface MHC Class I expression with an antibody against […] for subsequent FACS analysis. Data shown is for treatment […]-0973. Labeled isotype-matched antibodies were used to determine the level of non-specific staining.

[3] = molecular target: Constitutively activated human mutant MEK1 (Homo sapiens, UniProt Q02750); conditions: assay described in Example 8b; see page 49 in WO 2009/085983 A1; cited from earlier work

| Structure (SMILES) | frequency of cells expressing CD83, MHC-II and CD86 ([1]; 1 μM, anti-CD40, 48 hours, compared to vehicle) | frequency of DCs expressing surface markers of DC maturation and activation ([1]; increasing concentrations 0.001 μM to 10 μM, anti-CD40 co-stimulation) | cell surface expression of MHC-I [2] | IC50 [3] |
| --- | --- | --- | --- | --- |
| OCCn1cc(-c2ccc3c(c2)CC/C3=N\O)c(-c2ccncc2)n1 [GDC-0879, reference compound] | not upregulated | did not enhance the anti-CD40 co-stimulatory effect | not upregulated | – |
| CNC(=O)c1ncc2cncn2c1Nc1ccc(I)cc1F [(III)-21, 5-(2-Fluoro-4-iodophenylamino)-N-methylimidazo[1,5-a]pyrazine-6-carboxamide] | – | – | – | < 10 µM |
| O=C(NOCC1CC1)c1ncc2cncn2c1Nc1ccc(Br)cc1F [(III)-25, 5-(4-Bromo-2-fluorophenylamino)-N-(cyclopropyl-methoxy)imidazo[1,5-a]pyrazine-6-carboxamide] | – | – | – | < 10 µM |
